For the experiment, the target named is NF-κB inhibitor alpha (IκB-α) (rat (endogenous in spinal dorsal horn)) (UniProt Q63746). Nature of the experiment: co-IP; IP with IκB-α antibody from rat spinal dorsal horn lysate (300 μg protein, 4 °C overnight), magnetic beads, immunoblot with P65 antibody; rats treated with vehicle or oxaliplatin, with or without intraspinal AAV-MT2A-EGFP or AAV-EGFP.

The chains behind the UniProt entries cited, without tags or fusion partners.
UniProt Q63746: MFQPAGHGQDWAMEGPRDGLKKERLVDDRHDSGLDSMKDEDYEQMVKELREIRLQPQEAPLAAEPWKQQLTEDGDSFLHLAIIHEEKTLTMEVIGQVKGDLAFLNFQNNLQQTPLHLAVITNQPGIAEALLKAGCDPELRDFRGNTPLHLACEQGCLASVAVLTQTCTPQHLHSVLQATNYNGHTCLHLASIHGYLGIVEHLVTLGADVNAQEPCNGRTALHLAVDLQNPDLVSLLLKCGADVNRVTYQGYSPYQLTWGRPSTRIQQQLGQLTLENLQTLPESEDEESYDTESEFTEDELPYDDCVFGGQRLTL
UniProt Q7TQN4: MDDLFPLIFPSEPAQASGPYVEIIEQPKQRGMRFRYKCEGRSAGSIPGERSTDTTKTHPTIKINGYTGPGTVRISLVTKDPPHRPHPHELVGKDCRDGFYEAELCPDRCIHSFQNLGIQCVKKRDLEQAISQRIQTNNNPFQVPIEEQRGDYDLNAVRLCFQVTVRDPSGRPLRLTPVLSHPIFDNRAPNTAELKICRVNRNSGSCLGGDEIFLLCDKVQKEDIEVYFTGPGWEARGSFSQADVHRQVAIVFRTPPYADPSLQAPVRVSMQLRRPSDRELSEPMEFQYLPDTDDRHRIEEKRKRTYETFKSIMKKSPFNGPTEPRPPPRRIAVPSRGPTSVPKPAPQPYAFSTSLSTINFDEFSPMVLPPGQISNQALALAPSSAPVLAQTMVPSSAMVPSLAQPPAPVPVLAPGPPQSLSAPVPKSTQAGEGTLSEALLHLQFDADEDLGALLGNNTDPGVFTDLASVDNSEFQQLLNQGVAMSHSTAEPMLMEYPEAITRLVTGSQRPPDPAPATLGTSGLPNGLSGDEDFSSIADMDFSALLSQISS

These are yes or no findings as the source states them, for the method shown. In cells and extracts the contact can be indirect. Some results given as binding are weak or reduced against the parent protein; the word gives no strength.

Take “NF-κB p65 subunit (from UniProt Q7TQN4 1-550)”: the binding result was “binds”.

Values taken from publication PMC8045403.
